Experimental findings from the supplement of paper PMC12819154, “High-throughput peptide-centric local stability assay extends protein–ligand identification to membrane proteins, tissues and bacteria” (Nature Structural & Molecular Biology, 2025) are described below.

Protein sequences, listed by entry. Tags and fused reporters are not part of them. Lines headed by an entry give the natural chain unless they say otherwise; changes in a name come on top.
UniProt Q8BX94, whole entry: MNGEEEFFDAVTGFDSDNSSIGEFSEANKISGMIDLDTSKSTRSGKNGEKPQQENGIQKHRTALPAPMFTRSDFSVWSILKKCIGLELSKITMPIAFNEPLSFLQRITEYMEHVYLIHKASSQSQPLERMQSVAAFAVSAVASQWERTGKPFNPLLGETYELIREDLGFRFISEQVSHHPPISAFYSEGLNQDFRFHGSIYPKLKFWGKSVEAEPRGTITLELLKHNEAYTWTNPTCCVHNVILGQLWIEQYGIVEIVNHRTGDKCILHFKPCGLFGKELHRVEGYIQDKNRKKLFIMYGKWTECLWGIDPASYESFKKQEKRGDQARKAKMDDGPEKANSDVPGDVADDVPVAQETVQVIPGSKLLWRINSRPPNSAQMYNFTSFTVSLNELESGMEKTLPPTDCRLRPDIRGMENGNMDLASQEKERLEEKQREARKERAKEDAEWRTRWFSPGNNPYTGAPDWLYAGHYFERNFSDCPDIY
UniProt Q8BXJ2: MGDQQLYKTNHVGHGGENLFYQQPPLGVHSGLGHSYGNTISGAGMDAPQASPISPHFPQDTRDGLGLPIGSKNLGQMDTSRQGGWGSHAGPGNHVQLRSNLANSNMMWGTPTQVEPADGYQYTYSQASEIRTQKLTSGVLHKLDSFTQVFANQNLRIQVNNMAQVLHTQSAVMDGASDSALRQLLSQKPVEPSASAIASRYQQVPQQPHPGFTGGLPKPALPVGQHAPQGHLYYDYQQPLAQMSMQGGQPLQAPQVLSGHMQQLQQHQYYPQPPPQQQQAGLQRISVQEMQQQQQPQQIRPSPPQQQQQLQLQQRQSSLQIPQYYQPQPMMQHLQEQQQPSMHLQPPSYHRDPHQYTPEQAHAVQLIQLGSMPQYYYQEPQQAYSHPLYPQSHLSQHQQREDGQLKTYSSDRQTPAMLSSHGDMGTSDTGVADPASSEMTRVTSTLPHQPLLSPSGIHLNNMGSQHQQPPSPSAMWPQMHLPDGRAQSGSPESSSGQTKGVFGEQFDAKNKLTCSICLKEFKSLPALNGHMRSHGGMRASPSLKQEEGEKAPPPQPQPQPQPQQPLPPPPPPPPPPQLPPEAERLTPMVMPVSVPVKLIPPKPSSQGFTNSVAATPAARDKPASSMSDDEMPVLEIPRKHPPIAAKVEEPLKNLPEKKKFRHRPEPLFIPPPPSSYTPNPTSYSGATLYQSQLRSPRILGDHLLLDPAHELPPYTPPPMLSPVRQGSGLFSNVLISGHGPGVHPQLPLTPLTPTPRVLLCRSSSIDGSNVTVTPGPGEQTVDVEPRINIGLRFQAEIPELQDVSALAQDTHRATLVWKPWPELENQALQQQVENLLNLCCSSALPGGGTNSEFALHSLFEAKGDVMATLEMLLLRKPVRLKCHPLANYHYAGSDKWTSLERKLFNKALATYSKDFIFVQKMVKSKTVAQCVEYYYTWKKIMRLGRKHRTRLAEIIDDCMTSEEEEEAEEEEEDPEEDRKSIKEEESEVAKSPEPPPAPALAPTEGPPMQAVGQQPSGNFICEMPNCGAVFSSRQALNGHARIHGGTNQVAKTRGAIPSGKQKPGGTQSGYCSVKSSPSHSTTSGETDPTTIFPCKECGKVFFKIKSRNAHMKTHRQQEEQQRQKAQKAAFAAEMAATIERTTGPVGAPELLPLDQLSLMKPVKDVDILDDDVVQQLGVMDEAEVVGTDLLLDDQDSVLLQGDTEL
UniProt Q8BW96: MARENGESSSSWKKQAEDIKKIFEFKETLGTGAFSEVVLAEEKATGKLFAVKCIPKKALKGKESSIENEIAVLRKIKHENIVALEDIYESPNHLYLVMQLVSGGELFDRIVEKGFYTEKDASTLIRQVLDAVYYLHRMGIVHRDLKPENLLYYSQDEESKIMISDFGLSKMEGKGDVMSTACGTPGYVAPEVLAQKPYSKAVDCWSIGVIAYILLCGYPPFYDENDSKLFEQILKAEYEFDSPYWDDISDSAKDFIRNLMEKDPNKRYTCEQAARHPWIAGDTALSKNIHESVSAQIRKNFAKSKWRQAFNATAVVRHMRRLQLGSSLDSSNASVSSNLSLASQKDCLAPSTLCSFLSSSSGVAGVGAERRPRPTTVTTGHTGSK
UniProt Q8BZ47: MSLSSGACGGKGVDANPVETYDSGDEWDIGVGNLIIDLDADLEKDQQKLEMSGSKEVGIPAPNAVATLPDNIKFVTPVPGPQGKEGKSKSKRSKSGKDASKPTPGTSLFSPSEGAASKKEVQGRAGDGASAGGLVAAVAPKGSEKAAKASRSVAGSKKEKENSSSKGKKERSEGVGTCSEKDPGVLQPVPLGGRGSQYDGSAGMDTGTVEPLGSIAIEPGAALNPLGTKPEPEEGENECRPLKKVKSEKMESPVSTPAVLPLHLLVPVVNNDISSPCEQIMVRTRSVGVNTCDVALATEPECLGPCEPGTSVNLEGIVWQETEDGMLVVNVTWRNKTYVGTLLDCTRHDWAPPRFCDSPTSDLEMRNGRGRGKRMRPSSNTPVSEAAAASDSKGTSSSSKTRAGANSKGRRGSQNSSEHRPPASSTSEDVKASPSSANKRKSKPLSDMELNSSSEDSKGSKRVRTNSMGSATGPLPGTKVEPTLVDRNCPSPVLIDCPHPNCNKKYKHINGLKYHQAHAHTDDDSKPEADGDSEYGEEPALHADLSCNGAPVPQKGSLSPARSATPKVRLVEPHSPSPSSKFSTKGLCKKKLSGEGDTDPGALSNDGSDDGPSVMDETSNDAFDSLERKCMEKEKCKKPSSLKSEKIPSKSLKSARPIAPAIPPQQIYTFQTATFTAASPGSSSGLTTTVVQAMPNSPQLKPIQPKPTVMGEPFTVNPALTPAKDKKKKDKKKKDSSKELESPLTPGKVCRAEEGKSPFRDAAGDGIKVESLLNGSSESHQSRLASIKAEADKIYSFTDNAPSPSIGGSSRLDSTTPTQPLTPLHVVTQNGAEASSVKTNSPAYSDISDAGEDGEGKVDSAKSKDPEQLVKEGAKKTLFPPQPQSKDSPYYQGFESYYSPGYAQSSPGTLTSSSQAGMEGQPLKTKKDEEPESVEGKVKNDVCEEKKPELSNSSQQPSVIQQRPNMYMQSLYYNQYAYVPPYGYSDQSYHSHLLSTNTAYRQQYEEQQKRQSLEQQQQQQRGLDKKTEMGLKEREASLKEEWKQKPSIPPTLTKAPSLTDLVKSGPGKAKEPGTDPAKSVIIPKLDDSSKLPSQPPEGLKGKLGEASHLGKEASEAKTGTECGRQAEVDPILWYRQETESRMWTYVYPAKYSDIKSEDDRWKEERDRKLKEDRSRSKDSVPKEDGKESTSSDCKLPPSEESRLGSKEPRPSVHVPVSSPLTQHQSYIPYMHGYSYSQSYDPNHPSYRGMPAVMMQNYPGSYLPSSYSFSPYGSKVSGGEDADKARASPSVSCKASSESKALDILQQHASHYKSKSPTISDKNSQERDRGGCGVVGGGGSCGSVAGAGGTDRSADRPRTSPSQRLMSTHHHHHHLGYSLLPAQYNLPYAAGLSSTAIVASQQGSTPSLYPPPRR
UniProt Q8BNX1: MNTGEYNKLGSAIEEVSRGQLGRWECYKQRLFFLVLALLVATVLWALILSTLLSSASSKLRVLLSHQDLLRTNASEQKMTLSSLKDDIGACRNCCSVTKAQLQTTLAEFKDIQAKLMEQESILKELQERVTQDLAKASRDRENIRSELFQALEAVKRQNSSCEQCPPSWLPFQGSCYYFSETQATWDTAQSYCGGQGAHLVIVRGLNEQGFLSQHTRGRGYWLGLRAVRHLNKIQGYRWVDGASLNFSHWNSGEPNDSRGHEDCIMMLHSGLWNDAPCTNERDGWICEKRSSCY
UniProt Q8C129, whole entry: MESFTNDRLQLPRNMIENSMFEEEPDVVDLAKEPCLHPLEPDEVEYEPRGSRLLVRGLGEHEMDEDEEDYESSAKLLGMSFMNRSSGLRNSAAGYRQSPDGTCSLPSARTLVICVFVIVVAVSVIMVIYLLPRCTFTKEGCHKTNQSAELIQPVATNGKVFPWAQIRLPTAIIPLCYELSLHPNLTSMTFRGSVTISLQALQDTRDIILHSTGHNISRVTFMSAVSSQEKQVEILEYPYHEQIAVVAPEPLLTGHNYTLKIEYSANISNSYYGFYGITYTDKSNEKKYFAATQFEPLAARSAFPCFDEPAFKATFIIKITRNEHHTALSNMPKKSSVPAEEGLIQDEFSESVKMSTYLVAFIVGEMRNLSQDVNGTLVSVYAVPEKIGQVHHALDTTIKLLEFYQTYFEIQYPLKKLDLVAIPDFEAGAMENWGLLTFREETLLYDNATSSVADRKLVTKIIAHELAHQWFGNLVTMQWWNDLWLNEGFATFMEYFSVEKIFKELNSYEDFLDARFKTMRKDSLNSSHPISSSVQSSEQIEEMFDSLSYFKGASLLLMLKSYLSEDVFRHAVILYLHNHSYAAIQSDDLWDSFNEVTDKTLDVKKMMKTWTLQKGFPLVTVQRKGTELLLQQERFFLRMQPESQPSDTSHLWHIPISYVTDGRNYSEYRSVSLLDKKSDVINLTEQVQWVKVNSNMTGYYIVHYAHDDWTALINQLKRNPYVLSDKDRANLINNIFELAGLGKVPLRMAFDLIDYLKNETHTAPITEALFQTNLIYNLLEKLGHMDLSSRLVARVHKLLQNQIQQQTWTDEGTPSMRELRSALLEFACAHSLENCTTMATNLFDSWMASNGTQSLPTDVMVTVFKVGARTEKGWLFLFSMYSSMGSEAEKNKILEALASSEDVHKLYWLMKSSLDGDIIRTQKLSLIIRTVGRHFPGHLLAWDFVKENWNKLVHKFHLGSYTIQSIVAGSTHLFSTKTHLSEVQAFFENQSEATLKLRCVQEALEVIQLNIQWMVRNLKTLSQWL
UniProt Q8BJU0: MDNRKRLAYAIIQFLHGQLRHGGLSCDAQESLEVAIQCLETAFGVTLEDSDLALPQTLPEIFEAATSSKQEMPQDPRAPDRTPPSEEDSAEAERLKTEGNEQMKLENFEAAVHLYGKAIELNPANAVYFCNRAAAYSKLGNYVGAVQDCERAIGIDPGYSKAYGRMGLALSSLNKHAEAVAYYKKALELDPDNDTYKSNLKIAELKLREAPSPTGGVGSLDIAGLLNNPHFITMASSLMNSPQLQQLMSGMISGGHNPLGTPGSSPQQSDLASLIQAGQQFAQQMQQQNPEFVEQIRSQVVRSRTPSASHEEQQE
UniProt Q8BVF7, whole entry: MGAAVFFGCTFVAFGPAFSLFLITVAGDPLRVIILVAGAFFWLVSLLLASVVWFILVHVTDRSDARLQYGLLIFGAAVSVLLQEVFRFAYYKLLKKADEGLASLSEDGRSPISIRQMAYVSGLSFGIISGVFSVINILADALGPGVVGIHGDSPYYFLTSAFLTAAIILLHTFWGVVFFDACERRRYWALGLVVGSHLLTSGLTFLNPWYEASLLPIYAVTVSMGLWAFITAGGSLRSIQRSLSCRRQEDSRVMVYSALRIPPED
UniProt Q8BMS1: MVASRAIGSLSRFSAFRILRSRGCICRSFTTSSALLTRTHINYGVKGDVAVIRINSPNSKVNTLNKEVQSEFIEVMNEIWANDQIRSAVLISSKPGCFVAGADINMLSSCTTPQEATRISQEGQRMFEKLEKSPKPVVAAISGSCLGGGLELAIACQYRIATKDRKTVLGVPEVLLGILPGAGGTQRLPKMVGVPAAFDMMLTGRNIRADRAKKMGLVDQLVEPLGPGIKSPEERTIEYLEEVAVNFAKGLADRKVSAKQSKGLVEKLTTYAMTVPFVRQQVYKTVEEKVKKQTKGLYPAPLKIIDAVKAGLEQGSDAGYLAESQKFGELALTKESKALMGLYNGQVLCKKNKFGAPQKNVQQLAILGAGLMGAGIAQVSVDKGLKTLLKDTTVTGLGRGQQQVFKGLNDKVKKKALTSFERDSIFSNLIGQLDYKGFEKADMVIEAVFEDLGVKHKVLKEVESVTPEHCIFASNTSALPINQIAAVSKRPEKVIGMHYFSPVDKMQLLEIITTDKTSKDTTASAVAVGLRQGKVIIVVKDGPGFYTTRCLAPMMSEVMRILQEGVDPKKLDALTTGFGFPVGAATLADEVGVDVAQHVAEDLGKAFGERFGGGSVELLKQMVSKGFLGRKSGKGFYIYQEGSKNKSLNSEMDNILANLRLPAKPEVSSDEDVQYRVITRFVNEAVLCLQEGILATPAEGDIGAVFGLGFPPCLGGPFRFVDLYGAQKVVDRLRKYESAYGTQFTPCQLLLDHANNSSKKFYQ
UniProt Q8BP78: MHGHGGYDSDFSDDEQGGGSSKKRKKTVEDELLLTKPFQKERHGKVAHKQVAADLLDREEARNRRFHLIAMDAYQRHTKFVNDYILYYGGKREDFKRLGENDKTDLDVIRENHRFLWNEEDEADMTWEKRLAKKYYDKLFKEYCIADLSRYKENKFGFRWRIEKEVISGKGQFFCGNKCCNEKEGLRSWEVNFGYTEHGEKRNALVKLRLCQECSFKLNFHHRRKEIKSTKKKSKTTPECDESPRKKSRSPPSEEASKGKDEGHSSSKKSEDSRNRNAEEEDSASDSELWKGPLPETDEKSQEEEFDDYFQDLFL

Some of the results follow. Small differences around the control level are noise.

Compound in this assay: CN[C@@H]1C[C@H]2O[C@@](C)([C@@H]1OC)n1c3ccccc3c3c4c(c5c6ccccc6n2c5c31)C(=O)NC4 [staurosporine]
Description: log2 fold change of pooled soluble protein (PISA), ligand vs vehicle (log2 ratio); higher = more thermally stabilized. To be noted: ligand concentration: 20 uM; assay format: PISA pool 52.9/55.5/58.6 C.
For the target UniProt Q8BX94, the “log2 fold change of pooled soluble protein” value (“log2 fold change” for short) was -0.642.
As to UniProt Q8BUY9, the “log2 fold change” value is -0.0362.
The result for UniProt Q8BXJ2 reads -0.082.
The result for UniProt Q8C0D5 reads 0.0263; that for UniProt Q8BW96, 0.42; that for UniProt Q8BVR6, 0.0559.
The result for UniProt Q8C6I2 reads -0.000627; that for UniProt Q8BZ47, -0.23.
Take UniProt Q8BLK3: the “log2 fold change” value was -0.345.
The result for UniProt Q8BP56 reads 0.0318; that for UniProt Q8BKX1, -0.0254; that for UniProt Q8BUR4, 0.503.
The result for UniProt Q8BI08 reads -0.0344.
The result for UniProt Q8BMA6 reads 0.127; that for UniProt Q8BNX1, -0.00471.
As for UniProt Q8BIZ6, the “log2 fold change” value came out at 0.103.
As for UniProt Q8C196, the “log2 fold change” value is -0.0551.
The value for UniProt Q8C129 was 0.0441.
The result for UniProt Q8BTI8 reads 0.04.
The value for UniProt Q8BHL8 was 0.0753; that for UniProt Q8BGS2 was 0.069.
For the target UniProt Q8CC88, the “log2 fold change” value is -0.0289.
The result for UniProt Q8BJM3 reads -0.16; that for UniProt Q8C8T8, -0.146.
The value for UniProt Q8BJU0 was 0.0619.
With UniProt Q8C1B1, the “log2 fold change” value was determined as 0.232.
As for UniProt Q8C8R3, the “log2 fold change” value was determined as 0.0729.
With UniProt Q8BVF7, the “log2 fold change” value is -0.0559.
The value for UniProt Q8BMS1 was -0.086; that for UniProt Q8BIP0 was -0.227; that for UniProt Q8BH55 was 0.00209.
Take UniProt Q8BP78: the “log2 fold change” value came out at 0.0498.
On to UniProt Q8BXA1, for which the “log2 fold change” value is -0.0397.
The value for UniProt Q8BLN5 was -0.0486.
The value for UniProt Q8BUX5 was 0.12; that for UniProt Q8BJH1 was -0.0537.
The result for UniProt Q8BMF4 reads -0.0842.
